Data as given in patent US9585840B1, “Redox active cerium oxide nanoparticles and associated methods” (University of Central Florida Research Foundation, Inc., priority 2009, dated 2017).
Some of these results come from one statement about several compounds together. For at least one compound, name, drawing or mass did not settle the structure.

Tested on: SCL-1 tumor cells
Test: Invasion assay, matrigel-coated transwells
Assay type: cell-based, human
Details: SCL-1 pretreated with NAC (5.0 mM, 4 h) or selenite (0.5 μM, 24 h)

SMILES: O=[Se]([O-])[O-].[Na+].[Na+] [selenite, sodium selenite]
- increase in the number of invading tumor cells compared to CM^MF: 2.5- to 3.5 fold
